This is one part of the list. These are further read-outs of the screen, such as a control signal, another cell line or another target. No call is given for them. The list favours compounds with an active or inconclusive main result. Potencies come from curve fits of mixed quality, noted in brackets.
Assay: qHTS Assay to Find Inhibitors of Chronic Active B-Cell Receptor Signaling
Settings: ABC-DLBCL IkBa-CBG/CBR reporter, luminescence ratio (green luciferase fused to IkBa over red control in TMD8 lymphoma cells), 4 h
Procedure, shortened: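 Concentration-response series (up to 46 uM) were applied to TMD8 dual-reporter cells for 4 h at 37C with doxycycline. Green/red ratio, after filter-overlap correction, defined %Activity; red signal alone was normalised to basal cells and zero luminescence.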

[1] = measured here: CBR red luminescence, cell number
[2] = measured here: IkBa-CBG green luminescence

Structure (SMILES): Cn1nc(C(F)(F)F)c(-c2cccc(C(F)(F)F)c2)c1NC(=O)c1ccco1
- AC50 [1]: 0.112 µM [falling, full curve, poor fit]

Structure (SMILES): CC(=O)Nc1nc(-c2ccc([N+](=O)[O-])cc2)cs1
- AC50 [1]: 3.55 µM [rising, full curve]

Structure (SMILES): O=C(O)CCCCCN1C(=O)C(O)=C(C(=O)/C=C/c2ccccc2)C1c1ccccc1[N+](=O)[O-] (stereo unspecified)
- AC50 [1]: 15.8 µM [falling, partial curve, poor fit]

Structure (SMILES): O=c1oc(-c2ccccc2Cl)nc2ccsc12
- AC50 [1]: 29.1 µM [rising, single point]
- AC50 [2]: 29.1 µM [falling, single point]

Structure (SMILES): COc1ccccc1/C=N/OCc1ccc(C#N)cc1
- AC50 [1]: 4.47 µM [rising, partial curve, poor fit]

Structure (SMILES): COc1cc2nc(SCc3ccc(Cl)cc3Cl)n(Cc3cccs3)c(=N)c2cc1OC
- AC50 [2]: 12.6 µM [rising, partial curve, poor fit]

Structure (SMILES): CNC(=O)c1ccc(-c2cc(C(F)(F)F)nn2C)s1
- AC50 [1]: 6.31 µM [rising, partial curve]

Structure (SMILES): COc1cccc(NC(=O)c2ccc(-n3cccn3)nc2)c1
- AC50 [1]: 3.16 µM [falling, partial curve, poor fit]

Structure (SMILES): C/C(N)=C(/C#N)C(=O)COC(=O)c1cccc(C)c1O
- AC50 [1]: 20 µM [rising, partial curve, poor fit]

Structure (SMILES): C(=C\c1ccco1)/c1nc2ccccc2[nH]1
- AC50 [1]: 7.08 µM [falling, partial curve]

Structure (SMILES): Cc1ccc(-c2ccc(/C=C3\C(=O)ON=C3c3ccccc3)o2)c([N+](=O)[O-])c1
- AC50 [1]: 11.2 µM [falling, partial curve, poor fit]

Structure (SMILES): COC(=O)C(C)N(C(=O)c1ccc(C(=O)c2ccccc2)cc1)c1c(C)cccc1C (stereo unspecified)
- AC50 [1]: 23.1 µM [falling, single point]

Structure (SMILES): Cc1cc(C)c(NC(=O)CNC(=O)c2cc([N+](=O)[O-])ccc2N2CCOCC2)c(C)c1
- AC50 [1]: 0.092 µM [rising, full curve, poor fit]

Structure (SMILES): S=c1[nH]nc(NCCCN2CCOCC2)s1
- AC50 [1]: 17.8 µM [rising, partial curve, poor fit]

Structure (SMILES): COc1cccc(N=Nc2ccc(O)c3ncccc23)c1
- AC50 [1]: 10 µM [falling, partial curve, poor fit]

Structure (SMILES): COc1ccccc1NC(=O)COC(=O)c1[nH]c(=O)[nH]c(=O)c1N
- AC50 [1]: 32.6 µM [falling, single point]

Structure (SMILES): CSc1cccc(NC(=O)C2(S(=O)(=O)c3ccc(C)cc3)CC2)c1
- AC50 [1]: 35.5 µM [rising, single point]

Structure (SMILES): CCOc1ccc(Br)cc1C(=O)Nc1ccc(C(=O)NCC(C)C)cc1
- AC50 [1]: 20.6 µM [rising, single point]

Structure (SMILES): C/C(=N\N=C(/N)SC1CC(=O)N(c2ccc(Br)cc2)C1=O)c1cccs1 (stereo unspecified)
- AC50 [1]: 39.8 µM [falling, partial curve, poor fit]

Structure (SMILES): CN(C(=O)COC(=O)c1cc(S(=O)(=O)N2CCCCC2)ccc1N1CCOCC1)C1CCS(=O)(=O)C1 (stereo unspecified)
- AC50 [1]: 31.6 µM [rising, single point]

Structure (SMILES): CCOC(=O)Nc1nc(-c2ccccc2)c(C(=O)c2ccccc2)s1
- AC50 [1]: 14.6 µM [rising, partial curve, poor fit]

Structure (SMILES): CCCCCCCCCCOC(=O)Cn1c(COc2ccc(OC)cc2)[n+](C)c2ccccc21
- AC50 [1]: 11.2 µM [falling, single point]

Structure (SMILES): COc1ccc(C(C)=O)cc1COC(=O)CSC(C)C(=O)Nc1cc(C)on1 (stereo unspecified)
- AC50 [1]: 29.1 µM [rising, single point]

Structure (SMILES): Cc1nc(C)c(-c2csc(Nc3ccccn3)n2)s1
- AC50 [1]: 31.6 µM [falling, single point]

Structure (SMILES): CCOc1ccc(/C=N/NC(=O)c2ccccc2C)cc1CN1CC2CC(C1)c1cccc(=O)n1C2 (stereo unspecified)
- AC50 [1]: 29.1 µM [falling, single point]

Structure (SMILES): CCOc1ncccc1C(=O)N1CCN(c2cc(Cl)ccc2C)CC1
- AC50 [1]: 11.2 µM [rising, partial curve, poor fit]
- AC50 [2]: 12.6 µM [falling, partial curve]

Structure (SMILES): CCc1nnc(NC(=O)COc2ccc(N(C)S(=O)(=O)c3ccc(C)cc3)cc2)s1
- AC50 [1]: 4.47 µM [rising, single point]

Structure (SMILES): O=C(CCc1ccccc1)NNC(=S)NC(=O)c1ccc(Cl)cc1
- AC50 [1]: 3.26 µM [rising, single point]

Structure (SMILES): C=CCNC(=O)c1onc(CSc2ccc(F)c(F)c2)c1C(=O)O
- AC50 [1]: 0.251 µM [falling, full curve, poor fit]

Structure (SMILES): O=C(CCCCCNc1nc(=S)[nH]c2ccccc12)NCCc1c[nH]c2ccccc12
- AC50 [1]: 10.3 µM [falling, partial curve, poor fit]

Structure (SMILES): CCc1ccc(-c2cc(C)no2)cc1S(=O)(=O)N1CCCN(Cc2ccc(F)cc2)C1
- AC50 [1]: 11.2 µM [falling, partial curve, poor fit]

Structure (SMILES): CC(Oc1ccc2c(-c3ccccc3)cc(=O)oc2c1)C(=O)NCc1ccccn1 (stereo unspecified)
- AC50 [1]: 17.8 µM [rising, single point]

Structure (SMILES): O=C(NCCc1cccs1)C1CC(c2cccc(F)c2)=NO1 (stereo unspecified)
- AC50 [1]: 35.5 µM [falling, single point]

Structure (SMILES): CCN=c1scc(C)n1/N=C/c1cc(Br)c(O)c(OC)c1
- AC50 [1]: 0.501 µM [rising, partial curve, poor fit]

Structure (SMILES): CCOC(=O)c1sc(NC(=O)CCc2ccccc2)nc1C
- AC50 [1]: 0.316 µM [falling, full curve, poor fit]

Structure (SMILES): c1ccc(C2Oc3ccccc3C3CC(c4cccs4)=NN32)cc1 (stereo unspecified)
- AC50 [1]: 29.1 µM [falling, single point]

Structure (SMILES): Cc1ccc(S(=O)(=O)CCSc2cccc(C(=O)Nc3ccccc3C(=O)O)c2)cc1
- AC50 [1]: 2.06 µM [falling, full curve, poor fit]

Structure (SMILES): COc1ccc(S(=O)(=O)Nc2ccc3oc(C)c(C(C)=O)c3c2)cc1
- AC50 [1]: 2.59 µM [falling, single point]

Structure (SMILES): Cc1cc(Br)c2c(c1)/C(=C/C(=O)c1cccs1)C(=O)N2
- AC50 [1]: 35.5 µM [falling, single point]
- AC50 [2]: 35.5 µM [rising, partial curve, poor fit]

Structure (SMILES): CN(C)CC/C=C1\c2cc(F)ccc2CSc2ccccc21
- AC50 [1]: 20.6 µM [falling, partial curve]

Structure (SMILES): CCCCCCCN(C(=O)CCl)c1cccc(C)c1
- AC50 [1]: 23.1 µM [falling, single point]

Structure (SMILES): Cc1cccc(C(=O)Nc2ccc(NC(=O)c3ccccc3)cc2)c1
- AC50 [1]: 25.1 µM [falling, single point]

Structure (SMILES): O=C(COC(=O)c1n[nH]c2ccccc12)Nc1ccccc1F
- AC50 [1]: 16.4 µM [falling, partial curve]

Structure (SMILES): O=C(CN1CCOCC1)NNc1nc(-c2ccccc2)c2cc(Br)ccc2n1
- AC50 [1]: 2.24 µM [falling, full curve]

Structure (SMILES): CCOc1ccccc1N1CCN(C(=O)c2ccccc2SCC(=O)N2CCCC2)CC1
- AC50 [1]: 14.1 µM [rising, partial curve, poor fit]

Structure (SMILES): CCOC(=O)CN1CC23C=CC(O2)C(C(=O)NCc2ccc(F)cc2)C3C1=O (stereo unspecified)
- AC50 [1]: 29.1 µM [rising, single point]

Structure (SMILES): O=C(O)C1C2C=CC(CC2)C1C(=O)O (stereo unspecified)
- AC50 [1]: 3.26 µM [rising, single point]

Structure (SMILES): COc1cc(C2CC(=O)Oc3c(C(CCN4CCN(c5ccccc5)CC4)c4ccc(N(C)C)cc4)c(OC)cc(OC)c32)cc(OC)c1OC (stereo unspecified)
- AC50 [1]: 0.501 µM [rising, partial curve, poor fit]

Structure (SMILES): Cc1ccc(NC(=O)C(=O)C2C(=O)Nc3ccccc32)cc1 (stereo unspecified)
- AC50 [1]: 14.1 µM [falling, partial curve, poor fit]

Structure (SMILES): CCCc1cc(=O)n2[nH]c(CCc3ccccc3)nc2n1
- AC50 [1]: 5.62 µM [falling, partial curve]

Structure (SMILES): CCCCSc1nnc(-c2cc(Br)ccc2N)c(=O)[nH]1
- AC50 [1]: 1.3 µM [rising, full curve, poor fit]

Structure (SMILES): COC(=O)c1cc2c(ccn2-c2ccc(F)cc2)n1CC(=O)N1CCN(C(=O)c2ccco2)CC1
- AC50 [1]: 29.1 µM [rising, single point]

Structure (SMILES): S=C(Nc1ccc(Nc2ccccc2)cc1)Nc1ccccn1
- AC50 [1]: 14.1 µM [falling, partial curve]
- AC50 [2]: 35.5 µM [rising, partial curve, poor fit]

Structure (SMILES): O=S(=O)(Cc1noc(-c2ccccc2Cl)n1)c1ccccn1
- AC50 [1]: 20 µM [rising, partial curve]

Structure (SMILES): O=C(O)CSCc1cn2cc(Cl)ccc2n1
- AC50 [1]: 29.1 µM [falling, single point]

Structure (SMILES): N#C/C(=C\c1cn(Cc2ccccc2)c2ccccc12)C(=O)NCc1ccco1
- AC50 [1]: 7.31 µM [rising, partial curve]

Structure (SMILES): CCc1noc(C)c1C(=O)Nc1nc2ccc(S(C)(=O)=O)cc2s1
- AC50 [1]: 10.3 µM [falling, partial curve]

Structure (SMILES): CC(=O)Nc1ccc(N2C(=O)CSC2c2cccc([N+](=O)[O-])c2)cc1 (stereo unspecified)
- AC50 [1]: 35.5 µM [rising, partial curve, poor fit]

Structure (SMILES): Cc1ccccc1N1C(=O)c2sc3nc4c(c(=O)n3c2C1=O)CCC4
- AC50 [1]: 8.91 µM [falling, partial curve]

Structure (SMILES): COc1ccccc1NC(=O)Nc1nc(CC(=O)NCc2ccccn2)cs1
- AC50 [1]: 0.651 µM [rising, partial curve, poor fit]

Structure (SMILES): Clc1ccc(SCc2cc(-c3ccccc3)on2)cc1
- AC50 [1]: 0.231 µM [rising, full curve, poor fit]

Structure (SMILES): CC(C)(C)c1nnc(NS(=O)(=O)c2ccc([N+](=O)[O-])cc2)s1
- AC50 [1]: 25.1 µM [rising, partial curve, poor fit]
